No constants are given. Whether binding was seen depends on the method and setting. Binding calls can cover weak binding; strength is not graded here. Where a sequence is shown, tags or fusion partners need not be part of it.
Target: T1, GraS (native), fused to the T18 fragment of adenylate cyclase (Staphylococcus aureus) (UniProt Q2G0D9)
T1 sequence: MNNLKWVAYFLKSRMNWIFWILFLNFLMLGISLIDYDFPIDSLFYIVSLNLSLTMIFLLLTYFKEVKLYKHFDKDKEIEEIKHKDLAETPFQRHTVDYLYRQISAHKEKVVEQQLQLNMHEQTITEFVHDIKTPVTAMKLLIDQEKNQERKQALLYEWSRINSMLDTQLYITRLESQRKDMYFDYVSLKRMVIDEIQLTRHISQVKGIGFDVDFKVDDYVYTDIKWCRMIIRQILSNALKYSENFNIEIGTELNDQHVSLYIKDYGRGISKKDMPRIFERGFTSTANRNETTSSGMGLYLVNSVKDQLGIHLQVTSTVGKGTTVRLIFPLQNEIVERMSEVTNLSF
Experiment: two-hybrid; bacterial two-hybrid (BACTH) in E. coli DHT1; VraG variants with T25 (pKT25), GraS variants with T18 (pUT18); grown at 30°C; β-galactosidase activity with ONPG, absorbance at 420 nm after 15 min; also streaked on LB plates with IPTG and X-gal; empty plasmids as negative control

Substance	binding
VraG (native), fused to the T25 fragment of adenylate cyclase (from UniProt Q9KWJ4)	binds
VraG K380A, fused to the T25 fragment of adenylate cyclase (from UniProt Q9KWJ4)	no binding
VraG K388A, fused to the T25 fragment of adenylate cyclase (from UniProt Q9KWJ4)	binds
ΔEL VraG, fused to the T25 fragment of adenylate cyclase (from UniProt Q9KWJ4)	no binding

Source: paper PMC7951975
